Reference: the supplement of paper PMC4807443
Where a name gives a salt, the structure may show the parent alone. The list shows a part of the results. The numbers are fractions of the control, whatever unit the source prints. Most values lie at the level of the controls, where differences are scatter.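 MIN6, a mouse insulinoma beta-cell line, stably carries a lentiviral reporter where Pdx1 and Ins1 promoters each drive a nuclear fluorescent protein; Hoechst staining and automated imaging counted cells. Drugs were candidate hits if Ins1 promoter readout exceeded two median absolute deviations from DMSO controls while Pdx1 activity stayed near normal.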

system: MIN6; assay: % Pdx1+ Ins1+ (double-positive, mature) cells relative to DMSO control (fold of DMSO control); higher = more mature Ins1 promoter-active cells; conditions: 8.5 µM; 48 h; glucose 5 mM

First: Fc1ccc(C(OCCN2CCN(CCCc3ccccc3)CC2)c2ccc(F)cc2)cc1
Second: Clc1ccc(C(OCCN2CCCCC2)c2ccccc2)cc1 (stereo not given) [Cloperastine hydrochloride]
The “% Pdx1+ Ins1+” value of the first is lower: 0.698 for the first, 0.905 for the second.

Compared with COc1ccc(CCN2CCC(Nc3nc4ccccc4n3Cc3ccc(F)cc3)CC2)cc1 [Astemizole], CN1[C@@H]2CC[C@H]1C[C@@H](OC1c3ccccc3CCc3ccccc31)C2 [Deptropine citrate] is higher in “% Pdx1+ Ins1+” value: 0.253 for the first, 0.831 for the second.

First: CC(=O)O[C@H]1C[C@H](O[C@H]2[C@@H](O)C[C@H](O[C@H]3[C@@H](O)C[C@H](O[C@H]4CC[C@@]5(C)[C@H](CC[C@@H]6[C@@H]5C[C@@H](O)[C@]5(C)[C@@H](C7=CC(=O)OC7)CC[C@]65O)C4)O[C@@H]3C)O[C@@H]2C)O[C@H](C)[C@H]1O[C@@H]1O[C@H](CO)[C@@H](O)[C@H](O)[C@H]1O [Lanatoside C]
Second: C[C@@H]1O[C@@H](O[C@H]2C[C@@H](O)[C@]3(CO)[C@H]4[C@H](O)C[C@]5(C)[C@@H](C6=CC(=O)OC6)CC[C@]5(O)[C@@H]4CC[C@]3(O)C2)[C@H](O)[C@H](O)[C@H]1O [Strophantine octahydrate]
The “% Pdx1+ Ins1+” value of the first is lower: 0.928 for the first, 1.07 for the second.

Going from CN1C[C@H](CO)C=C2c3cccc4[nH]cc(c34)C[C@H]21 [Lysergol] to CO[C@]12C[C@@H](COC(=O)c3cncc(Br)c3)CN(C)[C@@H]1Cc1cn(C)c3cccc2c13 [Nicergoline], the “% Pdx1+ Ins1+” value rises from 0.603 to 1.13.

Going from C/C=C1\C[C@@H](C)[C@](O)(CO)C(=O)OCC2=CCN3CC[C@@H](OC1=O)[C@@H]23 [Retrorsine] to C[C@H]1C(=O)O[C@@H]2CCN3CC=C(COC(=O)[C@](C)(O)[C@]1(C)O)[C@H]23 [Monocrotaline], the “% Pdx1+ Ins1+” value rises from 0.869 to 0.963.

Compared with CC1=C2[C@H]3OC(=O)[C@@H](C)[C@@H]3CC[C@@]2(C)C=CC1=O [alpha-Santonin], C[C@@H]1CC[C@H]2[C@@H](C)C(=O)O[C@@H]3O[C@@]4(C)CC[C@@H]1[C@]32OO4 [Artemisinin] is higher in “% Pdx1+ Ins1+” value: 0.823 for the first, 0.918 for the second.

Compared with O[C@@H]1CCCC[C@H]1N1CCC(c2ccccc2)CC1 [L(-)-vesamicol hydrochloride], CN1[C@@H](C[C@@H](O)c2ccccc2)CCC[C@H]1C[C@H](O)c1ccccc1 [Lobelanidine hydrochloride] is higher in “% Pdx1+ Ins1+” value: 0.9 for the first, 0.957 for the second.

First: C[C@]12N[C@H](Cc3ccccc31)c1ccccc12 [Dizocilpine maleate]
Second: Cc1nccc2c1[nH]c1ccccc12 [Harmane hydrochloride]
The “% Pdx1+ Ins1+” value of the first is higher: 1.05 for the first, 0.94 for the second.

Compared with C[N+]1([O-])[C@@H]2C[C@@H](OC(=O)[C@H](CO)c3ccccc3)C[C@H]1[C@@H]1O[C@@H]12 (stereo not given in full) [Scopolamin-N-oxide hydrobromide], C[N+]12CCC(CC1)C(OC(=O)C(O)(c1ccccc1)c1ccccc1)C2 (stereo not given) [Clidinium bromide] is lower in “% Pdx1+ Ins1+” value: 1.1 for the first, 0.882 for the second.

First: c1cncc(C2=NCCC2)c1 [Myosmine]
Second: Cc1cccc(C)c1NC1=NCCCS1 [Xylazine]
The “% Pdx1+ Ins1+” value of the first is higher: 0.926 for the first, 0.679 for the second.

First: CCN1C[C@]2(COC)[C@H](O)C[C@H](OC)[C@@]34[C@@H]5C[C@@]6(O)[C@H](OC(=O)c7ccccc7)[C@@H]5[C@@](OC(C)=O)([C@@H]([C@H](OC)[C@H]23)[C@@H]14)[C@@H](O)[C@@H]6OC [Aconitine]
Second: CCN1C[C@]2(COC)CC[C@H](O)[C@@]34C5C[C@@H]6[C@@H](OC)C[C@](O)(C(CC23)C14)C5[C@H]6OC(C)=O (stereo not given in full) [Condelphine]
The “% Pdx1+ Ins1+” value of the first is lower: 0.938 for the first, 1.07 for the second.

First: O=[N+]([O-])c1cc([As](=O)(O)O)ccc1O [Roxarsone]
Second: CNCC(O)c1ccc(O)c(OC)c1 (stereo not drawn) [Metanephrine hydrochloride DL]
The “% Pdx1+ Ins1+” value of the first is lower: 0.978 for the first, 1.1 for the second.

First: CC[C@@]1([C@@H]2O[C@@H]([C@H]3O[C@@](O)(CO)[C@H](C)C[C@@H]3C)C[C@@H]2C)CC[C@H]([C@]2(C)CC[C@]3(C[C@H](O)[C@@H](C)[C@@H]([C@@H](C)[C@@H](OC)[C@H](C)C(=O)O)O3)O2)O1 [Monensin sodium salt]
Second: C[C@]12CC[C@H](O)C[C@H]1CC[C@@H]1[C@@H]2C[C@@H](O)[C@]2(C)[C@@H](C3=CC(=O)OC3)CC[C@]12O [Digoxigenin]
The “% Pdx1+ Ins1+” value of the first is lower: 0.351 for the first, 0.893 for the second.

First: CCC1(c2ccc(N)cc2)CCC(=O)NC1=O (stereo not given) [Glutethimide, para-amino]
Second: CCC1(c2cccc(O)c2)CCCCN(C)C1 (stereo not given) [Meptazinol hydrochloride]
The “% Pdx1+ Ins1+” value of the first is higher: 0.984 for the first, 0.781 for the second.

First: CCn1cc(C(=O)O)c(=O)c2cc3c(cc21)OCO3 [Oxolinic acid]
Second: COc1cc([C@@H]2c3cc4c(cc3[C@H](O)[C@H]3COC(=O)[C@H]23)OCO4)cc(OC)c1OC [Podophyllotoxin]
The “% Pdx1+ Ins1+” value of the first is higher: 1.14 for the first, 0.502 for the second.

Going from C[C@]12CC[C@H](O)C[C@@H]1CC[C@@H]1[C@@H]2CC[C@]2(C)C(=O)CC[C@@H]12 [Epiandrosterone] to CC(=O)OCC(=O)[C@H]1CC[C@H]2[C@@H]3CC[C@H]4C[C@H](O)CC[C@]4(C)[C@H]3C(=O)C[C@]12C [Alfadolone acetate], the “% Pdx1+ Ins1+” value rises from 0.829 to 1.02.

Compared with CN(C)C(=O)Oc1cc(OC(=O)N(C)C)cc(C(O)CNC(C)(C)C)c1 (stereo not given) [Bambuterol hydrochloride], CO[C@H](C)[C@](O)(C(=O)OCC1=CCN2CC[C@H](O)[C@@H]12)C(C)C [Heliotrine] is higher in “% Pdx1+ Ins1+” value: 0.928 for the first, 0.929 for the second.

First: NCC(O)c1ccc(O)cc1 (racemic) [(+,-)-Octopamine hydrochloride]
Second: NCCc1c[nH]c2ccc(O)cc12 [Serotonin hydrochloride]
The “% Pdx1+ Ins1+” value of the first is lower: 0.81 for the first, 0.859 for the second.

Going from COc1ccc2c3c([nH]c2c1)C(C)=NCC3 [Harmaline hydrochloride dihydrate] to COc1ccc2c(c1)[nH]c1c(C)nccc12 [Harmine hydrochloride], the “% Pdx1+ Ins1+” value rises from 0.76 to 0.865.

First: CC(Cc1ccccc1)NCCC(c1ccccc1)c1ccccc1 (stereo not given) [Prenylamine lactate]
Second: CC(C)c1c(CN(C)C(C)Cc2ccccc2)n(C)n(-c2ccccc2)c1=O (stereo not given) [Famprofazone]
The “% Pdx1+ Ins1+” value of the first is lower: 0.847 for the first, 0.934 for the second.

First: CC(=O)NC1CCSC1=O (racemic) [N-Acetyl-DL-homocysteine Thiolactone]
Second: COC1=C[C@@H]2C3=C([C@@H]2C1=O)[C@@H](NC(C)=O)CCc1cc(OC)c(OC)c(OC)c13 [Lumicolchicine gamma]
The “% Pdx1+ Ins1+” value of the first is lower: 0.856 for the first, 0.942 for the second.

Going from COc1cc2c(c(OC)c1OC)-c1ccc(O)c(=O)cc1[C@@H](N)CC2 [Trimethylcolchicinic acid] to COc1cc2c(cc1OC)C(C)NCC2 (stereo not given), the “% Pdx1+ Ins1+” value falls from 0.941 to 0.872.

Going from C=C(C)[C@@H]1[C@H]2OC(=O)[C@@H]1[C@]1(O)C[C@H]3O[C@]34C(=O)O[C@H]2[C@]14C [Picrotoxinin] to C=C[C@]12CN(C)[C@@H]3[C@H]4CO[C@H](C[C@H]41)[C@]1(C(=O)Nc4ccccc41)[C@@H]32 [Gelsemine], the “% Pdx1+ Ins1+” value rises from 0.908 to 0.921.

Going from O=P1(NCCCl)OCCCN1CCCl (stereo not given) [Ifosfamide] to NC(=O)CN1CCCC1=O [Piracetam], the “% Pdx1+ Ins1+” value falls from 0.967 to 0.913.

Compared with Cc1c2ccncc2c(C)c2c1[nH]c1ccccc12 [Ellipticine], CC[C@H]1[C@@H]2C[C@H]3[C@@H]4N(C)c5ccccc5[C@]45C[C@@H]([C@@H]2[C@H]5O)N3[C@@H]1O [Ajmaline] is higher in “% Pdx1+ Ins1+” value: 0.769 for the first, 1.07 for the second.

Going from CC(=O)OCC1=C(C(=O)O)N2C(=O)[C@@H](N)[C@H]2SC1 [Cephalosporanic acid, 7-amino] to COc1ccc(C[C@H]2NC[C@H](O)[C@H]2OC(C)=O)cc1 [Anisomycin], the “% Pdx1+ Ins1+” value falls from 0.933 to 0.483.

First: CC[C@H]1CN2CCc3cc(OC)c(OC)cc3[C@@H]2C[C@@H]1C[C@H]1NCCc2cc(OC)c(OC)cc21 [Emetine dihydrochloride]
Second: CCNC1(c2cccs2)CCCCC1=O (stereo not given) [Tiletamine hydrochloride]
The “% Pdx1+ Ins1+” value of the first is lower: 0.72 for the first, 1.01 for the second.

With CS(=N)(=O)CC[C@H](N)C(=O)O (stereo not given in full) [Methionine sulfoximine (L)] the “% Pdx1+ Ins1+” value was 0.96.
